PubChem BioAssay AID1224826 | NIAID – 2016
The whole screen tested about 17,000 reagents; shown is a part drawn at random. About 1,110 of them (6.6%) count as active. 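Active means lowered or raised reporter signal; replicate intensities are raw and not normalised per plate.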 A number with no mark means an inactive call. Not all columns of the deposit are shown.

Test: 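Regulators of Tlr4 signalling leading to Tnf-alpha expression in macrophages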 (primary screen)
Cell system: RAW264.7 G9 macrophages from mouse bearing reporters for p65 (GFP) and the Tnf promoter (mCherry)
Reagents: siRNA pool against mouse genes, 100 nM
Timing: 16 h of LPS stimulation, after 2 days of siRNA transfection
Treatment: bacterial lipopolysaccharide (Salmonella minnesota R595), 10 ng/ml
Measurement: 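Imaged Tnf reporter mCherry in nuclei, minus background, normalised per plate to the median and expressed as robust z-scores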
Scale: Tnf reporter robust z-score: higher = stronger Tnf promoter reporter signal after LPS
Active means: 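a well counts as active at a score of -1.3 or below (Tlr4 knock-down control median) or above 3 (raised signal); controls and wells holding fewer than 50 cells are excluded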
Calls: active = Tnf reporter clearly lowered or raised; inactive = no clear change in Tnf reporter

| Tnf reporter robust z-score | fewer than 50 cells in well | Gene |
| --- | --- | --- |
| – | fewer than 50 cells per well; well left out of calls | Ccdc70 |
| 1.21 | enough cells in well | Dcaf12 |
| -0.66 | enough cells in well | Ankmy2 |
| 0.21 | enough cells in well | Sik2 |
| 0.58 | enough cells in well | Pir |
| 0.27 | enough cells in well | Ctns |
| 0.09 | enough cells in well | Dr1 |
| 0.44 | enough cells in well | Pcdhga3 |
| -0.1 | enough cells in well | Dnase1l2 |
| -0.15 | enough cells in well | B230340J04Rik |
| 0.79 | enough cells in well | Ube2r2 |
| -1.73 (active) | enough cells in well | Acaa1a |
| 0.18 | enough cells in well | Ppargc1b |
| – | fewer than 50 cells per well; well left out of calls | Or6c3 |
| 0.97 | enough cells in well | Fgf11 |
| -0.71 | enough cells in well | Or7g33 |
| – | fewer than 50 cells per well; well left out of calls | Pclaf |
| -0.99 | enough cells in well | Pip4k2a |
| – | fewer than 50 cells per well; well left out of calls | Gm5111 |
| – | fewer than 50 cells per well; well left out of calls | 4930433N12Rik |
| -0.84 | enough cells in well | Vmn1r233 |
| -0.1 | enough cells in well | Pard6b |
| – | fewer than 50 cells per well; well left out of calls | Bax |
| 1.86 | enough cells in well | Dnase1 |
| 0.28 | enough cells in well | Cct6a |
| -0.35 | enough cells in well | Nrarp |
| -0.96 | enough cells in well | Hbb-y |
| -1.22 | enough cells in well | Uba52 |
| 2.02 | enough cells in well | Or51v14 |
| -0.35 | enough cells in well | Socs5 |
| 0.52 | enough cells in well | Lgi4 |
| -0.49 | enough cells in well | Hoxa1 |
| -1.5 (active) | enough cells in well | Rps7 |
| -1.1 | enough cells in well | Rbpjl |
| -0.17 | enough cells in well | Tefm |
| 0.53 | enough cells in well | Olah |
| -0.8 | enough cells in well | Sat1 |
| -0.48 | enough cells in well | Sprr2k |
| – | fewer than 50 cells per well; well left out of calls | Shc4 |
| 0.86 | enough cells in well | F3 |
